Results as given in patent EP4813403A1, “USE OF GLP-1R/GIPR DOUBLE-TARGET AGONIST IN PREPARING ANIMAL DRUG” (Hangzhou Zhongmeihuadong Pharmaceutical Co., Ltd., priority 2023, dated 2025).
Part of at least one peptide drawing is inferred or uncertain, most often the ends.

Chains of the proteins cited; added tags and fusions are not shown. Residues count along the entry.
UniProt P43220, 24-463: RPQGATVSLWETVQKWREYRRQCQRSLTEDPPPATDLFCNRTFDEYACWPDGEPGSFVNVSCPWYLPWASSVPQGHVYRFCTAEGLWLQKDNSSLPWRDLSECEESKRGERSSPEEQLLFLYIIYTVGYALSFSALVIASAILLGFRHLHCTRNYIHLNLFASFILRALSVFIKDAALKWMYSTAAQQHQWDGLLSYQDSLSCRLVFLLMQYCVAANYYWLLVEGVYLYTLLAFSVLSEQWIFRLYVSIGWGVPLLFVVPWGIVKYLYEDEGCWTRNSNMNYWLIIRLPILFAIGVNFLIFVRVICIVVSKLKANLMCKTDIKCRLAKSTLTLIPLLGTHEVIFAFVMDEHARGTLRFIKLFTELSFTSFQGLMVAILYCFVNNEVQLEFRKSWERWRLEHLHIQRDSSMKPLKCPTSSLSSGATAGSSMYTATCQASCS

Tests used:
db/db mice = test: Pharmacodynamic effects in db/db mice, single subcutaneous administration (blood glucose); format: in vivo; conditions: single s.c. 10 nmol/kg, Group 1, longest time with p<0.05 vs. vehicle
Method: In this study, 8-9 week old male db/db mice were used. The db/db mice were placed in an individual ventilated cage (IVC) facility with a controlled temperature (20-26°C) and humidity (40-70%) and a controlled 12h:12 h light-dark cycle. The mice can receive food and water ad libitum. Blood was sampled at the tail tip, and the random base blood glucose was measured by a Roche blood glucose meter. The mice were randomly divided into groups according to the random initial fasting blood glucose and initial body weight (n=6/group), and each group had similar body weight and blood glucose.
After a single subcutaneous administration, the random base blood glucoses were recorded at the set time point (0 to 120 hours, the recording of the random base blood glucose was stopped until there was no difference between the random base blood glucose of the compound and that of the vehicle group), and the daily body weight and food intake were also recorded. The data results were statistically analyzed using GraphPad Prism8, and the statistical differences among the groups were analyzed following a T-Test. Significant differences were identified at p<0.05.
Hypoglycemic Duration: the longest time during which the random base blood glucose of the compound has a significant difference (p<0.05) vs. the vehicle group. Table 13. Hypoglycemic Duration of the Compounds

human GLP-1R = human GLP-1R (Homo sapiens, UniProt P43220); test: In vitro binding activity to human GLP-1 receptor ([125I]GLP-1 displacement, crude cell membranes); design: expressed in transfected cells; conditions: ratio of the Ki value of the endogenous ligand to the Ki value of the test compound; larger ratio = stronger binding
Method: (§1) 89 µL of membrane dissolved in binding buffer (50 mM Hepes, pH 7.4, 5 mM MgCl2 , 5 mM EDTA, 0.005% TWEEN, 0.005% HSA) was transferred to a 96-well test plate (5 µg/well). The compound was serially diluted in DMSO, and then, 1 µL of the diluted compound or 100% DMSO was added to the test plate containing the membrane solution. 10 µL of [^125I] […] The test plate was left at room temperature for 90 minutes. The membrane complexes were harvested into a GF/B plate pre-coated with 0.5% PEI by using a Cell Harvester, and washed for 3 times with 500 µL of pre-cooled elution buffer (50 mM Hepes, pH 7.4, 500 mM NaCl) at 4°C. After drying at 37°C for 2 hours, 50 µL of scintillation fluid was added to each well. The plate was read with a MicroBeta2 scintillation counter after sealing and settling for at least 1 hour so as to determine the membrane bound radioligand level.
The IC50 concentration was converted to Ki (Ki was the inhibition constant) using the Cheng-Prusoff equation.

human GIP Receptor = molecular target: T1, human GIP Receptor (Homo sapiens, UniProt P48546); test: In vitro binding activity to human GIP receptor ([125I]GIP displacement, crude cell membranes); conditions: ratio of the Ki value of the endogenous ligand to the Ki value of the test compound; larger ratio = stronger binding
T1 construct: expressed in transfected cells
T1 sequence (P48546 22-466): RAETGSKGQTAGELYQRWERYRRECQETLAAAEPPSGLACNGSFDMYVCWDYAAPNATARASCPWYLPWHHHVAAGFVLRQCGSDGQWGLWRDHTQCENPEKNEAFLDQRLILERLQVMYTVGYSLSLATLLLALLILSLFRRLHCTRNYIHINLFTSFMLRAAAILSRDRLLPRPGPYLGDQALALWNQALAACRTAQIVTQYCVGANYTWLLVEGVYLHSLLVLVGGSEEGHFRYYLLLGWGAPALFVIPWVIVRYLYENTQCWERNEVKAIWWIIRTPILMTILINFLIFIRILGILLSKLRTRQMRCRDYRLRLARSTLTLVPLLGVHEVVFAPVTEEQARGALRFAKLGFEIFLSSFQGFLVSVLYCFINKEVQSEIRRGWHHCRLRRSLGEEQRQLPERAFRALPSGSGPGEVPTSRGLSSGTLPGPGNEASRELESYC
Method: as §1
hGIP and the compound of the present invention were dissolved in DMSO and stored at -80°C. 98 µL of membrane dissolved in binding buffer (50 mM HEPES pH 7.4, 5 mM MgCl2, 1 mM CaCl2, 0.1% BSA, 0.005% Tween-20) was transferred to a 96-well test plate (15 µg/well). […] The plate was read with a MicroBeta2 scintillation counter after sealing and settling for at least 1 hour so as to determine the membrane bound radioligand level. […]

CC[C@H](C)[C@H](NC(=O)C(C)(C)NC(=O)[C@H](Cc1ccc(O)cc1)NC(=O)[C@H](CC(=O)O)NC(=O)[C@H](CO)NC(=O)[C@@H](NC(=O)C(C)(Cc1ccccc1)NC(=O)[C@@H](NC(=O)CNC(=O)[C@H](CCC(=O)O)NC(=O)C(C)(C)NC(=O)[C@@H](N)Cc1ccc(O)cc1)[C@@H](C)O)[C@@H](C)O)C(=O)NC(C)(C)C(=O)N[C@@H](CC(C)C)C(=O)N[C@@H](CC(=O)O)C(=O)N[C@@H](CCCCN)C(=O)N[C@@H](CCC(N)=O)C(=O)N[C@@H](C)C(=O)N[C@@H](CCC(N)=O)C(=O)N[C@@H](C)C(=O)N[C@@H](CCC(=O)O)C(=O)N[C@@H](Cc1ccccc1)C(=O)N[C@H](C(=O)N[C@@H](CCCCN)C(=O)N[C@@H](Cc1c[nH]c2ccccc12)C(=O)N[C@@H](CC(C)C)C(=O)N[C@@H](CC(C)C)C(=O)N[C@@H](CCCCN)C(=O)NCC(=O)NCC(=O)N1CCC[C@H]1C(=O)N[C@@H](CO)C(=O)N[C@@H](CO)C(=O)NCC(=O)N[C@@H](C)C(=O)N1CCC[C@H]1C(=O)N1CCC[C@H]1C(=O)N1CCC[C@H]1C(=O)N[C@@H](CO)C(=O)N[C@@H](CCCCN)C(N)=O)C(C)C (stereo partly drawn) [Compound P001, reference compound]
Hypoglycemic Duration (db/db mice): 32 h | GLP-1R Ki ratio (human GLP-1R): 19.52 | GIPR Ki ratio (human GIP Receptor): 8.82
